Results from PMC11345397.
No constants are given. Whether binding was seen depends on the method and setting. Binding seen in cells or lysates may run through a third protein.

Protein sequences, listed by entry. Tags and fused reporters are not part of them. Lines headed by an entry give the natural chain unless they say otherwise; changes in a name come on top.
UniProt Q86UW9: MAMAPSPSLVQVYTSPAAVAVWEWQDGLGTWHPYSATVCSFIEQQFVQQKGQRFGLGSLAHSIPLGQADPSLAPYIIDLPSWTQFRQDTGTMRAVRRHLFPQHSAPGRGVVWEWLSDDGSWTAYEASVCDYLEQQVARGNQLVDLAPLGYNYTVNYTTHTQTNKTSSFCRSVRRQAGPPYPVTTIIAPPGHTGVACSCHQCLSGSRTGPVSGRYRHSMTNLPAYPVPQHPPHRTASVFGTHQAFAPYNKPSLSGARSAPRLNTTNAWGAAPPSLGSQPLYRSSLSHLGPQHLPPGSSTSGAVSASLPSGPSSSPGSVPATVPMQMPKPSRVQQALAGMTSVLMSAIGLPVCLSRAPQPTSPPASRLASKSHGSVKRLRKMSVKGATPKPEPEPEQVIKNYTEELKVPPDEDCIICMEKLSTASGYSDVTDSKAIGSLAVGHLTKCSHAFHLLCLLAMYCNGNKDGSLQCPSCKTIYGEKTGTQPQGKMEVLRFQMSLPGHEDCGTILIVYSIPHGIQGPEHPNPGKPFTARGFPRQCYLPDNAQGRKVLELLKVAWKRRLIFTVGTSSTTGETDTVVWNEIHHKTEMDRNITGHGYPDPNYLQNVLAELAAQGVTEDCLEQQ
UniProt P09874: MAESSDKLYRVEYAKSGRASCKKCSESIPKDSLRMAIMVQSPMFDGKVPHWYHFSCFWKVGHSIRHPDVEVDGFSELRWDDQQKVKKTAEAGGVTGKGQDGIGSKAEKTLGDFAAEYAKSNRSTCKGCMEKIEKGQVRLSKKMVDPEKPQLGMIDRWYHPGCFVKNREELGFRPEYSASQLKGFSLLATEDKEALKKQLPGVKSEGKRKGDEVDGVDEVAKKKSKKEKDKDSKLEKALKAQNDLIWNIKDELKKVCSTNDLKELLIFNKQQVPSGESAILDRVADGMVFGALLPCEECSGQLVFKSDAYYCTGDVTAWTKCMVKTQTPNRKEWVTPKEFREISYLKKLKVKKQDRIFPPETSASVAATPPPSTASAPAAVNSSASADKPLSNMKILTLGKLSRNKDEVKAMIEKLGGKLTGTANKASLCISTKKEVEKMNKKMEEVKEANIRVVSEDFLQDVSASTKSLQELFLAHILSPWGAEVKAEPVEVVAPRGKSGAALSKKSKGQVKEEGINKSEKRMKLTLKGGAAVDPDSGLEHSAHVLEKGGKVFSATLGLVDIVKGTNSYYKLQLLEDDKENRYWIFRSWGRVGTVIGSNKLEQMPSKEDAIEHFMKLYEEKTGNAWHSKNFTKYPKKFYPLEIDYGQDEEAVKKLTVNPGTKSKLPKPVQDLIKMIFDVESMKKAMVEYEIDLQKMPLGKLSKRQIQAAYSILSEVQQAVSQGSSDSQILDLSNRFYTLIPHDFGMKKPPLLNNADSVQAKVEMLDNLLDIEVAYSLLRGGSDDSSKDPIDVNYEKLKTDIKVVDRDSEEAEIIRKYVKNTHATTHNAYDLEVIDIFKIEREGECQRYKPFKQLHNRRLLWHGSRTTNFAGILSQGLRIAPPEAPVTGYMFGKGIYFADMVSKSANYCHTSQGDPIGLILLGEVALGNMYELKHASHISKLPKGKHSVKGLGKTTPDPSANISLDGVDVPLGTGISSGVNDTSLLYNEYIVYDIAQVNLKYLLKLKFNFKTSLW

Target: SFB-tagged DTX2B RING∗ (human) (UniProt Q86UW9)
Experiment: pull-down; streptavidin pull-down (MagReSyn Streptavidin beads, 1 h, 4 °C) of SFB-tagged bait from lysates of transfected HEK293T cells treated with DMSO and then 2 mM H2O2 for 10 min; lysis in 50 mM Tris-HCl pH 7.5, 150 mM NaCl, 1% NP-40 with PARG inhibitor and olaparib; immunoblotting

- binding: no binding
Substance: PARP1 (from UniProt P09874 1-1014)
